Measurements: the supplement of paper PMC3334620
The full ranking holds about 33,000 sequences; the median of “E-score (-0.5 to 0.5)” is about -0.0034, and the highest 2% start at about 0.25. The list shows a part of the results.

Target: T1, Yap3 (UniProt P38749)
T1 sequence: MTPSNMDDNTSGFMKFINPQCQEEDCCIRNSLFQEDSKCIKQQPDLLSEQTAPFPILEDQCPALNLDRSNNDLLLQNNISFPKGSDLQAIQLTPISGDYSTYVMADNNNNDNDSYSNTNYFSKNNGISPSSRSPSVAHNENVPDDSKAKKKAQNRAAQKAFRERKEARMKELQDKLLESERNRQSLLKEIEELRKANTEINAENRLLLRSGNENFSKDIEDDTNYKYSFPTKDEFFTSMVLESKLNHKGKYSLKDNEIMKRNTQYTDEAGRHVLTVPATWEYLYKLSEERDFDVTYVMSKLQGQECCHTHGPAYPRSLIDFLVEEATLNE
Assay: PBM E-score (8-mer binding enrichment) (E-score (-0.5 to 0.5)); higher = stronger / more preferred TF binding
Settings: protein concentration: 100 nM; construct: GST-full length
Procedure, shortened: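 For each ungapped eight-base word taken together with its reverse complement, the Universal PBM Analysis Suite assigned an E-score. Binding data came from GST-tagged yeast transcription factors, applied at about 100-200 nM, on universal all-10-mer Agilent arrays made double-stranded by primer extension. Fluorescent anti-GST marked bound protein, and scans were normalised with masliner.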

Point of comparison: AGACTCCA, “PBM E-score” value -0.125. Against it:
- GGATCCAA — higher, 0.138
- CCGCTAAA — higher, -0.0829
- CCCAGCCC — lower, -0.159
- AAGTATCG — higher, -0.0289
- AATAGTTC — higher, 0.156
- ACCGGTGC — lower, -0.181
- AATAACTC — higher, 0.0896
- GGAACGTA — higher, 0.0448
- GCATTGCC — higher, -0.122
- CGCGGAAG — higher, -0.0356
- AGCATGTG — higher, 0.0224
- AGGCTAGG — lower, -0.199
- AAGGCGGT — higher, -0.0625
- CGATCATC — higher, -0.113
- TTGCACAA — higher, 0.186
- CATGATGA — higher, 0.22
- TACGCGAA — higher, 0.101
- GTCCAAGA — lower, -0.288
- TCACGCCA — higher, -0.0417
- AATAATAA — higher, 0.308
- TATAGGCA — higher, -0.0824
- TAGTTGAA — higher, 0.192
- AAGTACCA — higher, 0.125
- CCATTTCC — higher, 0.17
- CAGCCGAG — lower, -0.198
- AATTAAAT — higher, 0.228
- CACGATAC — lower, -0.197
- GCGTTTTA — higher, 0.0039
- ATCCTTCA — higher, 0.0774
- GACTTCAC — higher, 0.0284
- CATTGGGC — lower, -0.218
- GGCTTAAA — higher, 0.0372
- GCGAGCGC — lower, -0.137
- GCACTCAC — higher, -0.0809
- ATTGCTTG — higher, 0.0953
- GGTAAGGA — higher, -0.109
- CTCTCAAA — higher, 0.152
- ATAACAGC — higher, 0.18
- CCACGTTC — higher, -0.0856
- AAGCTGGT — higher, -0.0365
- TGAAGCCA — higher, -0.0877
- AAAACAAT — higher, 0.199
- CGTCCACC — lower, -0.24
- GTGCCAAC — higher, 0.0191
- AGGCGCGG — lower, -0.132
- GGAGAACC — lower, -0.14
- ATGGGAGA — higher, 0.0263
- CTGTTTCA — higher, 0.0525
- TAAACTTA — higher, 0.0742
- AAAATCGT — higher, 0.114
- AGATCCAT — lower, -0.174
- CAGAGCGC — lower, -0.226
- CCGGCTCC — lower, -0.42
- AGGGCCAC — lower, -0.159
- AGTGCGGA — higher, 0.2
- CAATATCC — higher, 0.125
- CTGTCTCA — higher, -0.0216
- AGCTTTGG — lower, -0.142
- AAACAGAT — higher, 0.182
- ACGTAATG — higher, 0.354
- GTTCGACA — higher, 0.192
- CCGAAAAG — higher, 0.0584
- GCGAAGCC — lower, -0.304
- ATCCCTGA — higher, -0.0313
- AGGGTCCC — lower, -0.209
- TGCCAGAA — higher, 0.0609
- GAGAAGAA — higher, -0.00995
- AGCGATTG — higher, -0.0399
- ACTGAGAG — higher, -0.107
- AGGTTCTG — higher, -0.122
- CCTACATA — higher, 0.00754
- GGGTCTGA — lower, -0.171
- AGTCGAAA — higher, 0.0945
- GTGGCATA — higher, -0.0366
- GCCCGTCC — lower, -0.347
- ACTTCTAA — higher, -0.0716
- ACGGTACG — higher, 0.0175
- TACTTGCA — higher, 0.077
- CTAAATCA — higher, 0.125
- AGAAATAG — higher, 0.188
- GATACACA — higher, 0.14
- CATTTTGG — higher, -0.0184
- ACACTGCT — higher, -0.0253
- CTCTCCGA — lower, -0.275
- GTACCCGA — higher, -0.11
- ACTGGACT — higher, -0.0398
- GGAACTCC — higher, -0.0128
- TACATGAA — higher, 0.0212
- CACCTCGG — higher, -0.0715
- CACAGACG — higher, -0.123
- AGGACATA — higher, 0.0128
- GTATCCTA — higher, -0.0762
- GACATAAA — higher, 0.237
- GTCCTGTA — higher, 0.0436
- GACAGTCA — lower, -0.252
- GTAAATAA — higher, 0.267
- TAGTTTCA — higher, 0.124
- ATATGCCG — higher, 0.113
- AGTAGCTC — lower, -0.198
- ACTCGTGA — higher, -0.0997
- AACGTTCG — higher, -0.109
- CGTCCCGC — lower, -0.138
- ATGTGAGC — higher, -0.0137
- TCAGGTCA — higher, -0.0922
- AAGATAGC — higher, 0.0504
- AAGCTTTG — higher, 0.0373
- AAGCACCT — higher, 0.0698
- GCATAAAA — higher, 0.147
- CTCGGCAG — higher, -0.119
- AAGTGCGT — higher, 0.0236
- CCGGGTGA — higher, -0.0822
- CACCTGCG — higher, -0.0278
- ATATTGGC — higher, 0.0735
- AACAGAAT — higher, 0.0478
- ACGGAGCG — higher, 0.00415
- GTATTCAA — higher, 0.231
- ATCCGCTG — higher, -0.108
- AACTTCCG — higher, 0.0909
- GAAAGAGA — higher, 0.0574
- CTTCTAGA — lower, -0.131
- ACCGTCCC — lower, -0.165
- ACTTTAAT — higher, 0.187
- ATGCAGTA — higher, 0.129
- CGCATAAA — higher, 0.203
- ATATCACG — higher, 0.181
- ATTAAGAC — higher, 0.161
- CCTGATTC — higher, 0.0132
- ACCCCGGA — lower, -0.148
- TGTACACA — higher, 0.191
- GCACTCAA — lower, -0.241
- CCCCGGGG — lower, -0.471
- GCACGTGA — higher, -0.0556
- AACTTAAC — higher, 0.226
- ATTTCTAC — higher, -0.0293
- ACTACTTG — higher, 0.0999
- ATACCGTG — higher, -0.0112
- CAATCCCG — higher, 0.144
- GAAGCACA — higher, 0.0508
- GCGTGTCC — higher, -0.045
- ACACATGT — higher, 0.0237
- ATCCGCTA — higher, 0.0334
- CATTCAGA — higher, 0.0332
- GGTTGAAC — higher, 0.0646
- ACCTGGGC — lower, -0.349
- AAGAATCA — higher, 0.214
- CATTAACG — higher, 0.119
- CGCCCCGC — higher, -0.104
- ACATAGAC — higher, 0.0417
- GACTGCAA — higher, -0.0662
- ACACATCC — higher, 0.0146
- ATAGCCTG — lower, -0.282
- AAGCCCAG — higher, -0.0605
- AAGGCAAT — higher, 0.0883
- GGTGTTGA — higher, -0.0895
- TCCAATAA — higher, 0.157
- AACGTACT — higher, 0.173
- AAAGTGCT — higher, 0.0686
- AAAAGGCA — higher, 0.115
- AGCACCGA — higher, 0.14
- ATACTGGA — higher, 0.135
- CTGACAAA — higher, 0.154
- AAAGGATT — higher, -0.0578
- CAACCACA — higher, 0.0438
- ACACTGCA — lower, -0.174
- ACGTTTGG — higher, -0.088
- ACCGGGGA — lower, -0.32
- CTTCTTCC — lower, -0.132
- AAGACGAC — higher, 0.0944
- AGCCAACC — higher, 0.117
- TGAGATCA — higher, -0.041
- AGAGACTC — higher, 0.00576
